Data as given in PubChem BioAssay AID1259425 (University of Nebraska Medical Center, 2018)
The deposit covers about 14,000 reagents; shown is a part drawn at random. Not all columns of the deposit are shown. Not stated in the record: the time to read-out.

Test: 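Seek colon cancer weak points whose silencing resembles KSR1 loss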 (primary screen)
System: HCT116 human colon cancer cells
Knock-down reagent: siRNA pool against human genes, 50 nM siRNA
Measurement: 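mRNA of six signature genes measured together by branched-DNA assay after 50 nM siRNA pool, blank removed, divided by geometric mean of two housekeeping genes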
Direction: BNIP3L mRNA: higher = more BNIP3L transcript after knockdown; NDRG1 mRNA: higher = more NDRG1 transcript after knockdown

SLC25A1: BNIP3L mRNA, set 1 = 0.077; NDRG1 mRNA, set 1 = 0.127
PRORP: BNIP3L mRNA, set 1 = 0.109; NDRG1 mRNA, set 1 = 0.115
CACNG2: BNIP3L mRNA, set 1 = 0.201; NDRG1 mRNA, set 1 = 0.776
SLC44A4: BNIP3L mRNA, set 1 = 0.219; NDRG1 mRNA, set 1 = 0.874

Only “BNIP3L mRNA, set 1”, for 2 of the entries above:
PRORP: 0.109
CACNG2: 0.201

The listing continues:
SERTAD1: BNIP3L mRNA, set 1 = 0.071; NDRG1 mRNA, set 1 = 0.271
PLXND1: BNIP3L mRNA, set 1 = 0.187; NDRG1 mRNA, set 1 = 0.0917
MAP3K21: BNIP3L mRNA, set 1 = 0.0956; NDRG1 mRNA, set 1 = 0.179
GPR176: BNIP3L mRNA, set 1 = 0.157; NDRG1 mRNA, set 1 = 0.289
ZHX2: BNIP3L mRNA, set 1 = 0.0832; NDRG1 mRNA, set 1 = 0.122
GIT2: BNIP3L mRNA, set 1 = 0.323; NDRG1 mRNA, set 1 = 0.516
ECEL1: BNIP3L mRNA, set 1 = 0.0419; NDRG1 mRNA, set 1 = 0.338
ZMYND15: BNIP3L mRNA, set 1 = 0.244; NDRG1 mRNA, set 1 = 0.218
